These are yes or no findings as the source states them, for the method shown. Some entries that bind do so weakly or less than the wild type. Tags and fused reporters may be left off the sequences shown. Each block holds one molecule with its values, some of them ahead of it.
Target: T1, Delta (full-length Delta-MYC) (Drosophila melanogaster) (UniProt P10041)
T1 sequence: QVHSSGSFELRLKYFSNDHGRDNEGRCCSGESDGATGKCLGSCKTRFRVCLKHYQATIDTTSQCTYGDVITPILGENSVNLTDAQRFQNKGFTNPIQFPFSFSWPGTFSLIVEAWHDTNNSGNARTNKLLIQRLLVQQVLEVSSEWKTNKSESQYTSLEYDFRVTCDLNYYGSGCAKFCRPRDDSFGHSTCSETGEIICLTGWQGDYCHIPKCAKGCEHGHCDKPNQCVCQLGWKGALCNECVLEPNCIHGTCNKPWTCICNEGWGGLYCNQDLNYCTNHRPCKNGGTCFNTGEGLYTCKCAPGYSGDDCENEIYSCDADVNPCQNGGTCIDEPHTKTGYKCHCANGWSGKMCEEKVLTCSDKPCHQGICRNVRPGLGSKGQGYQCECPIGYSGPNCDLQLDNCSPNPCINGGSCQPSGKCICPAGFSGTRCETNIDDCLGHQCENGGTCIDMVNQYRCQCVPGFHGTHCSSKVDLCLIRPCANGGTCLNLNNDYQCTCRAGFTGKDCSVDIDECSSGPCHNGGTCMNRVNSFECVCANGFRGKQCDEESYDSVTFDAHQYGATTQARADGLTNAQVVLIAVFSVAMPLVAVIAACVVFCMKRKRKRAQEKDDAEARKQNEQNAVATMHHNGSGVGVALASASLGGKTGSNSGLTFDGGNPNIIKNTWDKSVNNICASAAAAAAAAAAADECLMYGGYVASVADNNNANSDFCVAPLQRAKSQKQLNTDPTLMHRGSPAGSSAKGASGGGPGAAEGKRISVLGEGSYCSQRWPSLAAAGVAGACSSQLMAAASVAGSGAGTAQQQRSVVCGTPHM
Assay: cell aggregation assay; S2 cells expressing full-length Notch or Delta-MYC (induced with 0.7 mM CuSO4), alone or mixed, 30 min in 2 mL on a belly dancer, then 15 min on poly L-lysine slides, fixed; light microscopy or antibody staining; also done after RNAi against mnr transcripts RA and/or RC, with no influence on clustering

By UniProt entry, the sequences of proteins in these tests, tags left out. Residues count along the entry.
UniProt P07207, residues 53-2703: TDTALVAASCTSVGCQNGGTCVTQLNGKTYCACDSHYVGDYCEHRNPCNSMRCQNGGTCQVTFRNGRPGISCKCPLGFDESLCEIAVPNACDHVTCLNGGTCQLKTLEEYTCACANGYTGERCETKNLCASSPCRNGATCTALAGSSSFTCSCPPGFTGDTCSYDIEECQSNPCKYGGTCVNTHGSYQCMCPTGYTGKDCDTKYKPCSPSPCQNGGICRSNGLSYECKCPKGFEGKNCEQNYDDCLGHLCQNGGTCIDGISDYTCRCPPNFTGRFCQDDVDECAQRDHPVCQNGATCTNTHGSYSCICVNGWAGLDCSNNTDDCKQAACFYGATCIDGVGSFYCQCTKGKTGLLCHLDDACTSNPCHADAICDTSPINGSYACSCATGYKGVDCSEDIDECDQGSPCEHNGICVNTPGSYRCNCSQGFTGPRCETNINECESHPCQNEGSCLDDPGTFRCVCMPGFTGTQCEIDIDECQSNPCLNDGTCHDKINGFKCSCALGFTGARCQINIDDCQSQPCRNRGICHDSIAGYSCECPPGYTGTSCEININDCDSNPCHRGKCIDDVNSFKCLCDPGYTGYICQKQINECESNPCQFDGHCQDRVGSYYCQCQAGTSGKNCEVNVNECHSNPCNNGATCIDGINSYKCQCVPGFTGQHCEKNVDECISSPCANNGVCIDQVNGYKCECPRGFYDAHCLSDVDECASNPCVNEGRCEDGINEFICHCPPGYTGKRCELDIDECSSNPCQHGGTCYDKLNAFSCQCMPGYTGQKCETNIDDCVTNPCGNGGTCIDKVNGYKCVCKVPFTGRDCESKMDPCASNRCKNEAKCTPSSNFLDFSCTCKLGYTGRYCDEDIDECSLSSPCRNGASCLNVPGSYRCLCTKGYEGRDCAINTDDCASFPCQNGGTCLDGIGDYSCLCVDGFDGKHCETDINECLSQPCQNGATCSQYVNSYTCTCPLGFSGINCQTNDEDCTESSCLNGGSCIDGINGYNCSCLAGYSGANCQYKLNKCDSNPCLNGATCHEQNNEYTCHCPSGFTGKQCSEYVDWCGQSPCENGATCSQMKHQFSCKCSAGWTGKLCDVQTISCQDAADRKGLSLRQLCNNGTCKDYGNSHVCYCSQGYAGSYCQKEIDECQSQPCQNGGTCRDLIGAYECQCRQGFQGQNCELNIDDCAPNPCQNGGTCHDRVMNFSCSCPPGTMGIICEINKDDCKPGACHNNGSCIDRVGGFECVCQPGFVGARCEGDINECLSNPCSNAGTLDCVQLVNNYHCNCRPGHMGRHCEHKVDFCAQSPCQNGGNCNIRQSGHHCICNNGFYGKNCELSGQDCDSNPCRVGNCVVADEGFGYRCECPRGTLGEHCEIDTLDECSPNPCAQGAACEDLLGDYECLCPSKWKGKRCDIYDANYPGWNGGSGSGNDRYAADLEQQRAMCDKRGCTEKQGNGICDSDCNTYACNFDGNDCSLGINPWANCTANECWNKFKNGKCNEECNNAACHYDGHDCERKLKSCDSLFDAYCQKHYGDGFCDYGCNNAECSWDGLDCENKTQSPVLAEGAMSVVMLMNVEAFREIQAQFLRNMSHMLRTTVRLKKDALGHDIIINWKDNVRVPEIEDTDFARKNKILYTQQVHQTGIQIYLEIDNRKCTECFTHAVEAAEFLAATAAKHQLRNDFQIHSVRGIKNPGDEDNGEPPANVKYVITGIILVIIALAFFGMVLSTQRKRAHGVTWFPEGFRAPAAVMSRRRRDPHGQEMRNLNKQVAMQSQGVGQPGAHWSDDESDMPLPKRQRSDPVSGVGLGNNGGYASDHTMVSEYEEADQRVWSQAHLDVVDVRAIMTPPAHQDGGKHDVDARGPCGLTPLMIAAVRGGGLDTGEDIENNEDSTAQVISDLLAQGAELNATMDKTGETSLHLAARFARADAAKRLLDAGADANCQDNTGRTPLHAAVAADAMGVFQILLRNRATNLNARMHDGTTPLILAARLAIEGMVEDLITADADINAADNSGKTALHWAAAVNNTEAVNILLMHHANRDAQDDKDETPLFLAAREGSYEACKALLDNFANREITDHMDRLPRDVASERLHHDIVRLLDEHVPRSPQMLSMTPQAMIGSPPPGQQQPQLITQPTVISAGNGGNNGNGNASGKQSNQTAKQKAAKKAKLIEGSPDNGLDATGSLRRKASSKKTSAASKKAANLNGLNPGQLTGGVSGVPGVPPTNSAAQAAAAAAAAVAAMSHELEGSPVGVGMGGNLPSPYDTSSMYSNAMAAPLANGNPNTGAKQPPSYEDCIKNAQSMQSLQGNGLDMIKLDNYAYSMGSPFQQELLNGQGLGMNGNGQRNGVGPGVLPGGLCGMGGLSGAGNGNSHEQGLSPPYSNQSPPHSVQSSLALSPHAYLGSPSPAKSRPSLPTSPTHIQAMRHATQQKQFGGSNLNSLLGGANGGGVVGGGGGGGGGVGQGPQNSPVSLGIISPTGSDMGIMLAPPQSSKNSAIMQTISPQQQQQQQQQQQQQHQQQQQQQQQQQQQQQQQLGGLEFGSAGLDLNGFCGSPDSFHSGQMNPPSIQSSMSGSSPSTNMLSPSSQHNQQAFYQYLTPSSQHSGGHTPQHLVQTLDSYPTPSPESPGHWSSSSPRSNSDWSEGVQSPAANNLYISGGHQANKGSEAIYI

binding: binds
Molecule: Notch receptor (full-length Notch) (from UniProt P07207 53-2703)

binding: binds
B1: Delta (full-length Delta-MYC) (ligand, UniProt P10041 19-833)
chain: T1 sequence
